{"source": "patent US8664237B2", "about": "(The Johns Hopkins University, priority 2008, dated 2014)", "origin": "cited, not measured here", "system": "5-HT receptor", "conditions": "cited from earlier work", "note": "pIC50: −log10 of the molar value.", "data": [{"smiles": "O=C(CCCN1CCC2(CC1)C(=O)NCN2c1ccccc1)c1ccc(F)cc1", "note": "[spiperone]", "values": [{"measurement": "effect on 5-HT effects (inhibited Na+ absorption, stimulated Cl- secretion)", "setting": "canine tracheal epithelia, another study", "value": "blocked those effects"}, {"measurement": "pIC50", "setting": "read-out: IC50 for inhibiting 5-HT-stimulated Cl- secretion, previous study, excised dog trachea", "value": 6.44}]}]}
